{
  "source": "patent US20140336187A1",
  "about": "“METHODS FOR TREATING LEISHMANIASIS” (HOWARD UNIVERSITY, priority 2011, published 2014)",
  "test_system": "L. donovani amastigotes",
  "test": "Antileishmanial activity on L. donovani amastigotes (resazurin assay)",
  "assay_type": "cell-based, Leishmania donovani",
  "settings": "SI = IC50 (mouse fibroblast) ÷ IC50 (amastigotes)",
  "description": "Amastigotes were grown in MAA/20 medium (Amastigote medium consisted of: M199 medium supplemented with 0.5% Tryptone broth, 0.01 mM bathocuproinedisulfonic acid, 0.108 mM L-Cysteine, 15 mM D-glucose, 0.685 mM L-glutamine, and 0.025 mM Hemin and 20% fetal calf serum (FCS) at a pH of 5.5).\nAmastigotes were plated at a concentration of 2×10^5 cells/[…] 24 hrs before treatment with various compounds. Amastigotes were treated with dilutions of compounds in 96-well microtitre plates. Dilutions of compounds ranging from 0.03 μM to 44 μM were prepared and added to amastigotes. Amastigotes were exposed to compounds for 48 hrs and were incubated at 37° C. […] After the incubation period, 20 μl Alamar Blue (12.5 mg resazurin dissolved in 100 ml distilled water) (Mikes and Steverding, 2000) were added to each well and plates were incubated for another 2 hrs. […] Decrease of fluorescence (inhibition) was expressed as percentage of the fluorescence of control cultures and was plotted against the concentrations of compounds. The IC50 values were calculated from the sigmoidal inhibition curves. Amphotericin B was used as a reference drug.",
  "note": "Values joined by “and” are separate entries in the source; they are usually repeats but may differ in a detail not shown here. Equal values may be shown once. At least one read-out could not be matched to a standard name with certainty.",
  "data": [
    {"compound": "COc1cc(C(=O)N(C(=O)c2cc(OC)c(OC)c(OC)c2)C2=C(Cl)C(=O)c3ccccc3C2=O)cc(OC)c1OC", "note": "[IMDNQ11, 2-bis-(3,4,5-trimethoxybenzoyl)amino-3-chloro-1,4-naphthoquinone]", "values": [
      {"measurement": "SI Values Amastigotes", "result": "0.23±0.42 and 0.24"}
    ]}
  ]
}
